Results on 39 compounds are retold here after the supplement of paper PMC8007513.

Some of the results follow. Most values come without repeats; read them as rough.

This experiment concerns Saccharomyces cerevisiae BY4743. The experiment in a line: growth (OD600) with compound + IPBC relative to untreated control; higher = less growth inhibition. Particulars: compound concentration: 133 uM; IPBC concentration: 0.5 ug/ml; 20 h. The protocol:
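NMCCC compounds (133 uM) combined with IPBC (0.5 ug/ml) against Saccharomyces cerevisiae BY4743 in YPD, 96-well plates. Growth was read as OD600 at 20 h and expressed as % of the untreated control. Single pass.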
As to `Cc1nn(C)c(C)c1NC(=O)CSc1nnc(Nc2ccc(OC(F)(F)F)cc2)s1` + CCCCNC(=O)OCC#CI [3-iodo-2-propynyl butylcarbamate (IPBC)], the growth was found to be 93.6%. Then `COC(=O)CNS(=O)(=O)c1ccc(NC(=O)c2cc3c(s2)CCCCCC3)cc1` + CCCCNC(=O)OCC#CI [3-iodo-2-propynyl butylcarbamate (IPBC)], with 89.4%. The figure for `CC1CN(S(=O)(=O)c2cccc(C(=O)OCCc3ccccc3)c2)CC(C)O1` (centres undefined) + CCCCNC(=O)OCC#CI [3-iodo-2-propynyl butylcarbamate (IPBC)] is 89.9%; for `CCc1c(C)nc2nc(NCc3cc(Br)ccc3OC)nn2c1O` + CCCCNC(=O)OCC#CI [3-iodo-2-propynyl butylcarbamate (IPBC)] it is 95.2%. Then `COc1cc(OC)c(C(=O)Nc2ccc3c(c2)NC(=O)C(C)O3)cc1OC` (centres undefined) + CCCCNC(=O)OCC#CI [3-iodo-2-propynyl butylcarbamate (IPBC)], with 95.1%; and `CCN(CC)CCn1c2ccccc2c2nc(C)sc21` + CCCCNC(=O)OCC#CI [3-iodo-2-propynyl butylcarbamate (IPBC)], with 92.1%. Regarding `COC1=CC=C(OC)C(=C1)C(=O)OCC(=O)N\2CC\C(=N2)C3=CC=CC=C3` + CCCCNC(=O)OCC#CI [3-iodo-2-propynyl butylcarbamate (IPBC)], the growth was determined as 97.6%. The figure for `COC1=CC=C(F)C=C1CN2\C=N/C3=C(C(=C(C)S3)C)C2=O` + CCCCNC(=O)OCC#CI [3-iodo-2-propynyl butylcarbamate (IPBC)] is 111%; for `CCSC1(SCC)\N=C(\N)C2(C#N)C(N\C(=C(\C)C12C#N)C)C3=CC=CC=C3` (centres undefined) + CCCCNC(=O)OCC#CI [3-iodo-2-propynyl butylcarbamate (IPBC)] it is 95.7%. Then `CC(C)[C@H](NC(=O)Cc1ccccc1)C(=O)OCC(=O)N1CCN(c2cccc(Cl)c2)CC1` + CCCCNC(=O)OCC#CI [3-iodo-2-propynyl butylcarbamate (IPBC)], with 88.3%; and `Cc1cc(F)ccc1-n1nnc(C(=O)OCc2ccc(F)cc2)c1C` + CCCCNC(=O)OCC#CI [3-iodo-2-propynyl butylcarbamate (IPBC)], with 89.1%. `CCc1cc2c(Nc3cccc(O)c3)nc(C)nc2s1` + CCCCNC(=O)OCC#CI [3-iodo-2-propynyl butylcarbamate (IPBC)]: the growth turned out to be 59.9%. The figure for `Cc1ccc(Nc2nc(SCc3ccccc3)nnc2C)cc1` + CCCCNC(=O)OCC#CI [3-iodo-2-propynyl butylcarbamate (IPBC)] is 88.8%. Turning to `CCn1c(SCC(=O)O)nc2c(=O)n(C)c(=O)n(C)c21` + CCCCNC(=O)OCC#CI [3-iodo-2-propynyl butylcarbamate (IPBC)], the growth stood at 87.8%. Then `COc1ccc(C(=O)OC(C)c2ccccc2Cl)cc1S(=O)(=O)N1CCCC1` (centres undefined) + CCCCNC(=O)OCC#CI [3-iodo-2-propynyl butylcarbamate (IPBC)], with 93.3%; and `Cc1ccc(NC(=O)CCc2ccc(C)o2)c(Br)c1` + CCCCNC(=O)OCC#CI [3-iodo-2-propynyl butylcarbamate (IPBC)], with 82.5%. Consider `CCOC(=O)c1csc(NC(=O)c2ccc3c(c2)NC(=O)C(C)S3)n1` (centres undefined) + CCCCNC(=O)OCC#CI [3-iodo-2-propynyl butylcarbamate (IPBC)], for which the growth was 64.7%. The figure for `CCOC(=O)N1CCN(C(=O)c2cc(-c3ccc(CC)cc3)[nH]n2)CC1` + CCCCNC(=O)OCC#CI [3-iodo-2-propynyl butylcarbamate (IPBC)] is 93.3%; for `O=C(COC(=O)c1ccccc1NC(=O)c1ccsc1)NC1CCCC1` + CCCCNC(=O)OCC#CI [3-iodo-2-propynyl butylcarbamate (IPBC)] it is 97.7%; for `Cc1cccc(NS(=O)(=O)c2cc(-c3onc(C)c3C)ccc2C)n1` + CCCCNC(=O)OCC#CI [3-iodo-2-propynyl butylcarbamate (IPBC)] it is 95.8%. Regarding `O=C(CSCc1ccccc1)Nc1nnc(Cc2ccc(Cl)cc2)s1` + CCCCNC(=O)OCC#CI [3-iodo-2-propynyl butylcarbamate (IPBC)], the growth worked out at 89.1%. The figure for `COc1ccc(C2c3cc(OC)c(OC)cc3CCN2C(=O)C(C)(C)C)cc1OC` (centres undefined) + CCCCNC(=O)OCC#CI [3-iodo-2-propynyl butylcarbamate (IPBC)] is 99%. Regarding `NC(=O)c1cc(Cl)ccc1OCC(=O)Nc1ccccc1Cc1ccccc1` + CCCCNC(=O)OCC#CI [3-iodo-2-propynyl butylcarbamate (IPBC)], the growth stood at 99%. For the compound `COC(=O)c1c(C)[nH]c(C(=O)N2CCN(S(C)(=O)=O)CC2)c1C` + CCCCNC(=O)OCC#CI [3-iodo-2-propynyl butylcarbamate (IPBC)], the growth was determined as 102%. On to `CC(=O)c1c(C)[nH]c(C(=O)N(Cc2nnc(-c3ccc(Cl)cc3)o2)C(C)C)c1C` + CCCCNC(=O)OCC#CI [3-iodo-2-propynyl butylcarbamate (IPBC)], for which the growth amounted to 103%. Then `CCCCN1\N=C(/C=C\C1=O)C(=O)NC2=CC=C(C=C2)[S](=O)(=O)N(C)CC3=CC=CC=C3` + CCCCNC(=O)OCC#CI [3-iodo-2-propynyl butylcarbamate (IPBC)], with 83.5%; and `CC\1(C)CC2=CC=CC=C2\C(=N1)CC(O)(C(F)(F)F)C(F)(F)F` + CCCCNC(=O)OCC#CI [3-iodo-2-propynyl butylcarbamate (IPBC)], with 101%; and `C1CCC(CC1)N\C2=N\N=C(/CS2)C3=CC=C[NH]3` + CCCCNC(=O)OCC#CI [3-iodo-2-propynyl butylcarbamate (IPBC)], with 75.6%.

As to `CCOC(=O)c1c(-c2ccccc2)csc1NC(=O)CCSc1nnc(C)s1` + CCCCNC(=O)OCC#CI [3-iodo-2-propynyl butylcarbamate (IPBC)], the growth stood at 82.6%. `COc1cc(C(=O)Nc2ccccc2OCC2CCCO2)cc(OC)c1OC` (centres undefined) + CCCCNC(=O)OCC#CI [3-iodo-2-propynyl butylcarbamate (IPBC)]: the growth is 101%.

For the compound `CCOC1=CC(=CC=C1O)C\2\C(=C(\N)O\C(=C2C#N)C(C)(C)C)C#N` (centres undefined) + CCCCNC(=O)OCC#CI [3-iodo-2-propynyl butylcarbamate (IPBC)], the growth amounted to 86.3%. Then `O=C(Nc1nc[nH]n1)c1ccc(C(F)(F)F)cn1` + CCCCNC(=O)OCC#CI [3-iodo-2-propynyl butylcarbamate (IPBC)], with 96.3%; and `CCOC(=O)c1c(C)[nH]c(C)c1S(=O)(=O)N1CCN(Cc2ccccc2)CC1` + CCCCNC(=O)OCC#CI [3-iodo-2-propynyl butylcarbamate (IPBC)], with 91%; and `CC1Cc2cc(S(N)(=O)=O)ccc2N1Cc1cccc(C(F)(F)F)c1` (centres undefined) + CCCCNC(=O)OCC#CI [3-iodo-2-propynyl butylcarbamate (IPBC)], with 99.1%. On to `COC/1=C/C(=O)N(/N=C1C(=O)NC2=CC=C(F)C(=C2)C(F)(F)F)C3=CC=C(C)C=C3` + CCCCNC(=O)OCC#CI [3-iodo-2-propynyl butylcarbamate (IPBC)], for which the growth came to 91.9%. Then `Cc1ccc(-c2ncccc2C(=O)Nc2cccc(F)c2)s1` + CCCCNC(=O)OCC#CI [3-iodo-2-propynyl butylcarbamate (IPBC)], with 98.3%; and `CCOC(=O)c1cn(Cc2ccccc2)nc1-c1ccccc1OC` + CCCCNC(=O)OCC#CI [3-iodo-2-propynyl butylcarbamate (IPBC)], with 92.6%; and `CC(C)CCNC(=O)c1ccc(Cn2c(C(F)(F)F)nc3cccnc32)cc1` + CCCCNC(=O)OCC#CI [3-iodo-2-propynyl butylcarbamate (IPBC)], with 96.4%.

As for `CN(C)S(=O)(=O)c1cccc(COc2ncnc3c(Cl)cc(Cl)cc23)c1` + CCCCNC(=O)OCC#CI [3-iodo-2-propynyl butylcarbamate (IPBC)], the growth stood at 99.9%.
